# PubChem BioAssay AID504791 – Drosophila RNAi Screening Center – 2011
# Assay: 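Genes of the fly required for silencing by miRNA, siRNA or endo-siRNA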 (primary screen)
# Cells: Drosophila S2-derived reporter cells
# Knock-down reagent: long dsRNA against Drosophila genes, about 150-250 ng dsRNA per well (siRNA assay); about 80-120 ng (miRNA assay)
# Timing: about 5 days (siRNA assay); about 4 days (miRNA assay)
# Challenge: copper sulfate induction of reporters: 25 µM (siRNA assay); 200 mM stated (miRNA assay), 1-2 days before reading
# Read-out: 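Dual luciferase assay: Renilla to firefly signal ratio in each well, scaled to the mean ratio of its plate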
# Call rule: 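First-pass picks had plate-scaled ratios over 1.5 for the siRNA assay, over 1.6 for the miRNA assay, or under 0.6; two distinct dsRNAs had to score alike on retest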
# In all, the deposit lists about 23,000 reagents; this is an unselected part of those with a known target gene and a result. In the full data, 199 (0.86%) were called active. 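Plate-scaled ratios behind the calls are not deposited; printed light signals are raw; many rows marked increased or decreased are still called inactive.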 Unmarked entries are inactive. The numbers tell different reagents against one gene apart. A plus sign joins genes that one reagent is predicted to hit. Reagent sequences are not shown. The record does not give: the direction of the score.
stable siRNA reporter change,miRNA reporter change,"stable assay Renilla, run 1 (luminescence)","stable assay firefly, run 1 (luminescence)",gene knocked down,reagent
,,5220,4.68e5,CG14985,1
,,5831,3.58e5,CG14985,2
,,6863,4.82e5,LManIV,1
,,5955,3.60e5,CG13559,1
reporter ratio lowered past the hit cutoff,,8758,5.69e5,GluProRS,1
,,6252,3.02e5,Vha16-4 + CG15614,1
,,6239,5.47e5,CG10996,1
,,24424,2.08e6,az2,1
,,7931,3.55e5,Strn-Mlck,1
,,6186,4.22e5,Strn-Mlck,2
,,7490,4.85e5,Strn-Mlck,3
,,28607,3.23e5,GrlHz,1
,,7110,2.72e5,CG12316,1
,,5139,4.76e5,Rhp,1
,,6420,3.62e5,CG3386,1
,reporter ratio lowered past the hit cutoff,9966,6.42e5,Sec24CD,1
,,7279,3.05e5,CG14300,1
,,2863,3.37e5,CG13995,1
,,6443,3.68e5,CG13995,2
,,3244,3.21e5,CG13995,3
,,7751,4.05e5,Spn42De,1
,,8249,5.40e5,Crk,1
,,8946,4.42e5,Drice,1
,,7805,4.37e5,CG10274,1
reporter ratio lowered past the hit cutoff,,3127,4.41e5,Polr3C,1
,,7172,3.52e5,yip3,1
,,5486,4.08e5,CG32225,1
,,5192,3.88e5,c11.1,1
,,6084,3.80e5,Wsck,1
,,6151,4.03e5,CG9522,1
,,7479,3.81e5,PK1-R,1
,,69649,1.57e6,Sesn,1
,,5915,4.97e5,Sesn,2
,,7358,3.89e5,Sesn,3

Part of the list above in another layout:
CG13995 #3: stable assay Renilla, run 1 (luminescence) = 3244; stable assay firefly, run 1 (luminescence) = 3.21e5
Spn42De: stable assay Renilla, run 1 (luminescence) = 7751; stable assay firefly, run 1 (luminescence) = 4.05e5
Crk: stable assay Renilla, run 1 (luminescence) = 8249; stable assay firefly, run 1 (luminescence) = 5.40e5
